T/C and survivor count data for 22 compounds are collected here from PubChem BioAssay AID248 (DTP/NCI, 2004).

The list does not hold the whole screen: it gathers tests that were run many times, whatever their T/C, doses with no T/C, and many T/C values between a quarter and a half above the control. Other doses and runs of a compound stand elsewhere. T/C is the treated group as % of the vehicle group. Some entries give survivors of the animals treated and no T/C: the source files T/C as zero there, which appears to mark a toxic dose or a test without result, not a measured value. Some doses without a T/C left all or most animals alive at the check, yet need not have been tolerated: the source hardly ever lists a survival T/C far under the control, and the zero likely stands for such cases as well. Counts of survivors are from the toxicity check (mostly the fifth day) where no day follows; animals may have died later. Schedules are NCI's codes, read here as Q, the interval in days (D) or hours (H), X, the number of doses. Some schedule codes hold Z or #, which are not explained here. Some doses were run more than once; the values are given in rising order. Some structures stand for samples that the source files as different forms (salt, stereo form or complex); doses refer to the form tested. Additions like (4×) give the number of equal values in this list. For survival time, this PubChem deposit counts one and a half times the control or more as active, and values a quarter to a half above the control carry no call in these data; other NCI protocols may use other cut-offs. Some T/C values are followed by the survivors on the day toxicity was checked, most often the fifth; without a count, all were alive then.

The assay has as its system L1210 leukemia ip in BDF1 mice, survival T/C. Kind of assay: NCI In Vivo Anticancer Drug Screen. Data for tumor model L1210 Leukemia (intraperitoneal) in B6D2F1 (BDF1) mice. To be noted: higher T/C = longer survival.
The mark [1] stands for this setting: T/C endpoint: mean survival time, dose: 200.0 mg/kg/injection, schedule: Q01DX009 (ip), vehicle: Klucel (hydroxypropylcellulose) (HPC).
Setting [2] is: T/C endpoint: mean survival time, dose: 200.0 mg/kg/injection, schedule: Q01DX009 (ip), vehicle: saline.
Where [3] appears, read: T/C endpoint: mean survival time, dose: 400.0 mg/kg/injection, schedule: Q01DX009 (ip), vehicle: Klucel (hydroxypropylcellulose) (HPC).
Setting [4] is: T/C endpoint: mean survival time, dose: 400.0 mg/kg/injection, schedule: Q04DX003 (ip), vehicle: saline with Tween-80.
[5] abbreviates: T/C endpoint: mean survival time, dose: 200.0 mg/kg/injection, schedule: Q01DX001 (ip), vehicle: saline.
The mark [6] stands for this setting: T/C endpoint: mean survival time, dose: 400.0 mg/kg/injection, schedule: Q01DX001 (ip), vehicle: saline.
Where [7] appears, read: T/C endpoint: mean survival time, dose: 100.0 mg/kg/injection, schedule: Q01DX001 (ip), vehicle: saline.
Setting [8] is: T/C endpoint: mean survival time, dose: 50.0 mg/kg/injection, schedule: Q01DX009 (ip), vehicle: Klucel (hydroxypropylcellulose) (HPC).
Setting [9] is: T/C endpoint: mean survival time, dose: 100.0 mg/kg/injection, schedule: Q04DX003 (ip), vehicle: saline.
The mark [10] stands for this setting: T/C endpoint: mean survival time, dose: 200.0 mg/kg/injection, schedule: Q04DX003 (ip), vehicle: saline.
[11] abbreviates: T/C endpoint: mean survival time, dose: 400.0 mg/kg/injection, schedule: Q04DX003 (ip), vehicle: saline.
Setting [12] is: T/C endpoint: mean survival time, dose: 300.0 mg/kg/injection, schedule: Q01DX001 (ip), vehicle: saline.

Consider `O=c1cc(CO)[nH]cc1O`, for which the T/C reads like this: (T/C endpoint: mean survival time, dose: 173.0 mg/kg/injection, schedule: Q01DX Z (ip), vehicle: carboxymethylcellulose (CMC)) 132 % of control; (T/C endpoint: mean survival time, dose: 175.0 mg/kg/injection, schedule: Q01DX Z (ip), vehicle: carboxymethylcellulose (CMC)) 142 % of control; (T/C endpoint: mean survival time, dose: 175.0 mg/kg/injection, schedule: Q01DX Z (ip), vehicle: saline) 142 % of control; under setting [1], 130 % of control; under setting [2], 128 % of control; (T/C endpoint: mean survival time, dose: 200.0 mg/kg/injection, schedule: Q01DX015 (ip), vehicle: carboxymethylcellulose (CMC)) 127 % of control. The T/C was 134 and 142 % of control (T/C endpoint: mean survival time, dose: 263.0 mg/kg/injection, schedule: Q01DX Z (ip), vehicle: carboxymethylcellulose (CMC)); 140 % of control (T/C endpoint: mean survival time, dose: 266.0 mg/kg/injection, schedule: Q01DX009 (ip), vehicle: Klucel (hydroxypropylcellulose) (HPC)); 134 % of control (T/C endpoint: mean survival time, dose: 393.0 mg/kg/injection, schedule: Q01DX Z (ip), vehicle: carboxymethylcellulose (CMC)); 134 and 148 % of control under setting [3]; 125 % of control (T/C endpoint: mean survival time, dose: 400.0 mg/kg/injection, schedule: Q01DX015 (ip), vehicle: carboxymethylcellulose (CMC)); 126 % of control (T/C endpoint: mean survival time, dose: 600.0 mg/kg/injection, schedule: Q01DX009 (ip), vehicle: Klucel (hydroxypropylcellulose) (HPC)).
Consider `COc1cc(C(=O)C[n+]2ccccc2)ccc1O`, for which, under setting [4], the survivor count is on record as 2 of 6.
Take `C[N+](C)(C)C(=O)c1ccccc1`: the survivor count is 0 of 4 under setting [5] and 0 of 4 under setting [6].
Turning to `CC(C)C(=O)CC(=O)C(C)C.CC(C)C(=O)CC(=O)C(C)C.[Cu]`, the survivor count reads like this: under setting [7], 2 of 6; under setting [5], 1 of 6; under setting [6], 1 of 6.
Consider `CC(C)c1ccc(N2C(=O)C=CC2=O)cc1`, for which the survivor count is 0 of 6 under setting [8]; 0 of 6 (T/C endpoint: mean survival time, dose: 100.0 mg/kg/injection, schedule: Q01DX009 (ip), vehicle: Klucel (hydroxypropylcellulose) (HPC)); 0 of 6 under setting [1]; 0 of 6 under setting [3].
`CN1CC(COC(=O)CCc2ccc(N(CCCl)CCCl)cc2)C=C2c3cccc4[nH]cc(c34)C[C@H]21` (stereo partly specified): the T/C (T/C endpoint: mean survival time, dose: 25.0 mg/kg/injection, schedule: Q01DX009 (ip), vehicle: saline) is 133 % of control; the T/C under setting [9] was 130 % of control; the T/C under setting [11] was 130 % of control [4 of 6 alive]. For the same compound, the survivor count under setting [2] was 1 of 6, the survivor count under setting [10] is 3 of 6 and the survivor count under setting [11] is given as 0 of 6.
Take `Cc1cc2[nH]c(=O)c(=O)[nH]c2cc1C`: the survivor count under setting [3] was 1 of 6.
In the case of `CCn1c(O)c(C=N)c(=O)n(CC)c1=O`, the survivor count by setting is: under setting [2], 4 of 6; (T/C endpoint: mean survival time, dose: 400.0 mg/kg/injection, schedule: Q01DX009 (ip), vehicle: saline) 1 of 6.
Consider `Cc1c2ncnc-2ncn1O`, for which the survivor count under setting [9] is 2 of 3, the survivor count under setting [10] was 2 of 3 and the survivor count under setting [11] is reported as 1 of 3.
Regarding `C[N+](C)(C)Cn1nnc2ccccc21`, under setting [12], the survivor count is on record as 0 of 6.
As to `N#CC(C#N)=NNc1cccc(Cl)c1`, where the note is “T/C endpoint: mean survival time, dose: 100.0 mg/kg/injection, schedule: Q04DX003 (ip), vehicle: Klucel (hydroxypropylcellulose) (HPC)”, the survivor count is reported as 1 of 6.
Turning to `COc1cc([C@@H]2c3cc4c(c(O)c3C[C@H]3COC(=O)[C@@H]32)OCO4)cc(OC)c1OC`, the survivor count by setting is: (T/C endpoint: mean survival time, dose: 2.25 mg/kg/injection, schedule: Q01DX Z (ip), vehicle: saline) 7 of 8; (T/C endpoint: mean survival time, dose: 3.3 mg/kg/injection, schedule: Q01DX Z (ip), vehicle: saline) 7 of 8; (T/C endpoint: mean survival time, dose: 5.0 mg/kg/injection, schedule: Q01DX Z (ip), vehicle: saline) 7 of 8; (T/C endpoint: mean survival time, dose: 7.5 mg/kg/injection, schedule: Q01DX Z (ip), vehicle: saline) 6 of 8; under setting [7], 0 of 4 and 0 of 6; under setting [5], 0 of 4. Further, the survivor count is 0 of 4 under setting [6] and 5 of 8 (T/C endpoint: median survival time, dose: 4.0 mg/kg/injection, schedule: Q01DX009 (ip), vehicle: Klucel (hydroxypropylcellulose) (HPC)).
As for `CCCCCC(=O)Nc1cccc(O)c1`, under setting [4], the survivor count is reported as 1 of 6.
On to `CN(C)c1ccnc(N(C)C)n1`, for which the survivor count runs as follows: (T/C endpoint: mean survival time, dose: 62.0 mg/kg/injection, schedule: Q01DX Z (ip), vehicle: methylcellulose (MC)) 1 of 6; (T/C endpoint: mean survival time, dose: 125.0 mg/kg/injection, schedule: Q01DX Z (ip), vehicle: methylcellulose (MC)) 0 of 6.
`COC(=O)c1ccc(NCC(=N)N)cc1`: the survivor count under setting [6] is listed as 1 of 6.
`[NH-]C(CC(N)=O)C(=O)O.[NH-]C(CC(N)=O)C(=O)O.[Ni+2]` (stereo unspecified): the survivor count (T/C endpoint: mean survival time, dose: 50.0 mg/kg/injection, schedule: Q01DX009 (ip), vehicle: water) is recorded as 3 of 6; the survivor count (T/C endpoint: mean survival time, dose: 100.0 mg/kg/injection, schedule: Q01DX009 (ip), vehicle: water) is reported as 0 of 6; the survivor count (T/C endpoint: mean survival time, dose: 100.0 mg/kg/injection, schedule: Q04DX002 (ip), vehicle: saline) is 2 of 3; the survivor count (T/C endpoint: mean survival time, dose: 200.0 mg/kg/injection, schedule: Q04DX002 (ip), vehicle: saline) is 0 of 3; the survivor count (T/C endpoint: mean survival time, dose: 200.0 mg/kg/injection, schedule: Q04DX003 (ip), vehicle: water) is listed as 1 of 6; the survivor count (T/C endpoint: mean survival time, dose: 400.0 mg/kg/injection, schedule: Q04DX002 (ip), vehicle: saline) is on record as 0 of 3. For the same compound, the survivor count (T/C endpoint: mean survival time, dose: 400.0 mg/kg/injection, schedule: Q04DX003 (ip), vehicle: water) is on record as 0 of 6.
On to `O=c1[nH]c2cccnc2c(=O)n1O`, for which, where the note is “T/C endpoint: mean survival time, dose: 87.5 mg/kg/injection, schedule: Q04DX003 (ip), vehicle: carboxymethylcellulose (CMC)”, the survivor count is on record as 2 of 6.
As for `CC(C)c1ccc2c(c1)CCC1C(C)(CN)CCCC21C` (stereo unspecified) (tested in a mixture with another compound), the survivor count is 1 of 6 (T/C endpoint: mean survival time, dose: 100.0 mg/kg/injection, schedule: Q01DX001 (ip), vehicle: saline with Tween-80); 0 of 6 (T/C endpoint: mean survival time, dose: 200.0 mg/kg/injection, schedule: Q01DX001 (ip), vehicle: saline with Tween-80); 0 of 6 (T/C endpoint: mean survival time, dose: 400.0 mg/kg/injection, schedule: Q01DX001 (ip), vehicle: saline with Tween-80).
On to `C=C(C)C1(Cc2ccccc2)C(=O)NC(=S)NC1=O`, for which the survivor count reads like this: (T/C endpoint: mean survival time, dose: 18.75 mg/kg/injection, schedule: Q01DX001 (ip), vehicle: saline) 3 of 6; (T/C endpoint: mean survival time, dose: 20.0 mg/kg/injection, schedule: Q01DX001 (ip), vehicle: saline) 3 of 6; (T/C endpoint: mean survival time, dose: 37.5 mg/kg/injection, schedule: Q01DX001 (ip), vehicle: saline) 0 of 6; (T/C endpoint: mean survival time, dose: 40.0 mg/kg/injection, schedule: Q01DX001 (ip), vehicle: saline) 0 of 6; (T/C endpoint: mean survival time, dose: 75.0 mg/kg/injection, schedule: Q01DX001 (ip), vehicle: saline) 0 of 6 (3×); (T/C endpoint: mean survival time, dose: 150.0 mg/kg/injection, schedule: Q01DX001 (ip), vehicle: saline) 0 of 6 (3×). Besides, the survivor count under setting [12] was 0 of 6 (3×).
`Nc1cc(C(=O)O)[nH]c(=O)n1`: the survivor count (T/C endpoint: mean survival time, dose: 200.0 mg/kg/injection, schedule: Q01DX Z (ip), vehicle: methylcellulose (MC)) is on record as 6 of 6.
Turning to `CCOC(=O)c1ccc(C(=O)OCC)c(C#N)n1`, the survivor count under setting [3] is given as 6 of 6.
`CCOc1c(OC)cc(/C=C/C(=O)NC2CC2)cc1OC`: the survivor count is recorded as 3 of 3 under setting [8], 6 of 6 under setting [1] and 0 of 6 under setting [3].
